Out of some 360,000 compounds screened, about 10,000 (2.8%) were called active. Inconclusive results, whose numbers are uncertain, are shown with a selection of clear calls. Calls follow the shape of the dose curve; as a rule, active = well fitted inhibition curve with a large enough effect; inconclusive = small, poorly fitted or top-dose-only effect; inactive = flat fitted curve, though single readings scatter. Potencies of inconclusive entries are doubtful fits and often do not repeat.
Biological target: Serine/threonine-protein kinase PLK1 (Homo sapiens) (UniProt P53350)
Test: qHTS for Inhibitors of PLK1-PDB (polo-like kinase 1 - polo-box domain): Primary Screen; also: nearly all actives have a fitted effect of over 65% in size; as to max response, negative = inhibition: series mostly up to about 57 µM
Conditions: Plk1 PBD binding of FITC phosphopeptide, fluorescence polarization
% is scaled to controls: 0 for no effect and ±100 for the full control effect; potency is read from the fitted curve at half-maximal effect.

By UniProt entry, the sequences of proteins in these tests, tags left out.
UniProt P53350, whole entry, looked up: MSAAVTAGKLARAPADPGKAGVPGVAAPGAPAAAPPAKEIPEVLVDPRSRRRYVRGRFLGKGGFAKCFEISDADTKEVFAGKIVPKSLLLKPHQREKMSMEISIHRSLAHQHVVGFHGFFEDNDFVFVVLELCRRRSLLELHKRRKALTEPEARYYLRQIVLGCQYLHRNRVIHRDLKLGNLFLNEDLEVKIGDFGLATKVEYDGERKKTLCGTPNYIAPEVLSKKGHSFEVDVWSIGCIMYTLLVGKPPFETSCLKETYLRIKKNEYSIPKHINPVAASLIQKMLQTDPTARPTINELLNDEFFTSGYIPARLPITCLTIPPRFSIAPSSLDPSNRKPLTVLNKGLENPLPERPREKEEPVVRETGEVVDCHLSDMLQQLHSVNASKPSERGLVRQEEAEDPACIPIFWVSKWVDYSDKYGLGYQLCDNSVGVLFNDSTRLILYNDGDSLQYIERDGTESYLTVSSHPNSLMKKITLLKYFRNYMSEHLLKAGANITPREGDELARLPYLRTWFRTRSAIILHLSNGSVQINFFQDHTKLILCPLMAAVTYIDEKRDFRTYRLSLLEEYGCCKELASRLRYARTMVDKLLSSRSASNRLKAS

Structure (SMILES)	max response, negative = inhibition	Potency
Cc1ccc(N(CCC(=O)N2CCOCC2)S(=O)(=O)c2ccccc2)cc1	inactive: 2.78%	
CCCC1NC(C(=O)O)Cc2c1[nH]c1ccccc21 (stereo unspecified)		active: 18.9 µM
COC(=O)C1=C(C)N(CCc2ccc(OC)c(OC)c2)C(=O)C1	inactive: -7.86%	
CN(C)c1ccc(-c2noc(C3CCN(S(=O)(=O)c4cccc(C(=O)O)c4)CC3)n2)cc1		inconclusive: 75.2 µM [inhibitor, partial curve]
O=C(Cc1ccc(NC(=O)C2CCN(C(=O)C3CC3)CC2)cc1)Nc1cccc(C(=O)N2CCCC2)c1	inactive: -3.44%	
O=c1ccc2cc3c4c(c2o1)CCCN4CCC3		active: 16.8 µM
C=CCN1C(=O)c2ccc(C(=O)N3CCN(S(=O)(=O)c4cc(C)ccc4C)CC3)cc2C1=O		inconclusive: 84.4 µM [inhibitor, single point]
COc1ccccc1CNC(=O)CSc1ccc(C(=O)Nc2ccccc2OC)cc1[N+](=O)[O-]	inactive: -3.61%	
CCCCNC(=S)Nc1ccc(SC(F)F)cc1		inconclusive: 16.8 µM [inhibitor, partial curve]
O=C(O)C1C2C=CC(CC2)C1C(=O)O (stereo unspecified)	inconclusive: -34.6% [inhibitor]	
Cc1ccc2[nH]c(C)c(CCNC(=O)C3CCCCC3C(=O)OCC(F)(F)F)c2c1 (stereo unspecified)		inconclusive: 21.2 µM [inhibitor, single point]
C#CCOCCOCCOCCNc1nc(N2CCN(C(=O)[C@H](CCCCN)n3cc([C@@H](N)[C@H](C)CC)nn3)CC2)nc(N2CCN(C(=O)[C@H](CCCCN)n3cc([C@@H](N)CC(N)=O)nn3)CC2)n1	inactive: -8.6%	
CN(C)C(=O)CSc1nnc([C@H](Cc2ccccc2)NC(=O)OC(C)(C)C)o1		active: 26.7 µM
CN(C)CC/C=C1\c2cc(F)ccc2CSc2ccccc21	inactive: -6.64%	
CN1C(=O)C(O)(CC(=O)c2ccc(F)cc2)c2cc(Br)ccc21 (stereo unspecified)		inconclusive: 33.6 µM [inhibitor, partial curve]
CCN1C(=O)[C@@H]2C(C(=O)c3cnccn3)=NN[C@@H]2C1=O	inactive: -22.5%	
O=C(CSc1c[nH]c2ccccc12)NC1CCCC1		inconclusive: 26.7 µM [inhibitor, single point]
O=C(CSc1nc2ccccc2s1)Nc1ncccn1		inconclusive: 26.7 µM [inhibitor, partial curve]
CCOc1ncccc1C(=O)N1CCN(c2cc(Cl)ccc2C)CC1		active: 21.2 µM
COC(=O)N1C(=O)[C@](c2ccsc2)(C(C)C)N1C(=O)OC		inconclusive: 21.2 µM [inhibitor, partial curve]
COC(=O)c1ccc(Oc2cc(C)nc(SC)n2)cc1		active: 11.9 µM
CCC(=O)Nc1cccc(NC(=O)CSc2nnnn2Cc2ccccc2)c1		inconclusive: 29.9 µM [inhibitor, partial curve]
O=C1C(=O)N(CCN2CCOCC2)C(c2ccccn2)/C1=C(/O)c1ccc(Cl)cc1 (stereo unspecified)	inconclusive: -35.3% [inhibitor]	
CCOc1cc(C(=S)N2CCCCC2)ccc1OCC(=O)NCc1ccccc1		inconclusive: 23.8 µM [inhibitor, partial curve]

Structure (SMILES)	max response, negative = inhibition	Potency
O=C(CCCN1C(=O)/C(=C\c2ccco2)SC1=S)Nc1ccc(O)cc1C(=O)O		active: 16.8 µM
CC(C)(C)c1nnc(NS(=O)(=O)c2ccc([N+](=O)[O-])cc2)s1		active: 23.8 µM
CCCCCCCCCCCC(=O)NC(Cc1ccc(OC)c([N+](=O)[O-])c1)C(=O)O (stereo unspecified)		inconclusive: 29.9 µM [inhibitor, single point]
CSc1nc(O)c(C(c2ccc(O)cc2)c2c(O)nc(SC)[nH]c2=O)c(=O)[nH]1		inconclusive: 21.2 µM [inhibitor, partial curve]
CCOC(=O)CC(NC(=O)C1c2ccccc2Oc2ccccc21)c1ccccc1Cl (stereo unspecified)		inconclusive: 33.6 µM [inhibitor, partial curve]
CC(=O)Nc1ccc2c(=O)n(-c3ccccc3)sc2c1		active: 2.38 µM
CCOC(=O)c1c(NC(C)=O)sc(/C(C)=N/Nc2ccc(C(=O)O)cc2)c1C		inconclusive: 15 µM [inhibitor, partial curve]
CCOC(=O)c1c(NC(=O)c2cccnc2Cl)sc(C(=O)N(C)C)c1C		inconclusive: 11.9 µM [inhibitor, partial curve]
FC(F)(F)c1ccccc1Cc1c(-c2ccco2)nc2ccc(Cl)cn12		inconclusive: 26.7 µM [inhibitor, partial curve]
CCOC(=O)N1CCN(Cc2ccc(O)c3ncccc23)CC1		active: 26.7 µM
Cc1ccc(S(=O)(=O)N2[C@@H](c3ccc(Br)cc3)C(C(=O)O)=CC[C@H]2c2ccc(Cl)cc2)cc1		active: 26.7 µM
Cc1oc2ccc(OCc3ccc(Br)cc3)cc2c1C(=O)O	inconclusive: -33% [inhibitor]	
O=C(NNc1nc2c(F)cccc2s1)C1=COCCO1		inconclusive: 29.9 µM [inhibitor, single point]
O=C(c1ccc([N+](=O)[O-])cc1)N1CCSC1c1cccc(Cl)c1 (stereo unspecified)		inconclusive: 29.9 µM [inhibitor, partial curve]
COc1ccc([N+](=O)[O-])cc1NC1CCN(C(=O)c2cccs2)CC1	inactive: -15.6%	
Nc1nc(-c2cccs2)c(-c2cccs2)s1		inconclusive: 29.9 µM [inhibitor, single point]
COc1ccc(/C=N/n2c(-c3n[nH]c4c3CCC4)n[nH]c2=S)c(OC)c1OC		inconclusive: 29.9 µM [inhibitor, partial curve]
CC(C)(C)NCc1ccccc1OCc1cccs1		inconclusive: 37.7 µM [inhibitor, single point]
CCOC(=O)N1CCN(C(=O)c2ccc(Cn3c(=S)[nH]c4ccc(Br)cc4c3=O)cc2)CC1	inactive: -26.5%	
O=C(COc1ccc([N+](=O)[O-])cc1)N/N=C/c1ccccn1	inactive: 0.704%	
COc1cccc(NC(=O)CNC(=O)c2ccc([N+](=O)[O-])cc2)c1	inactive: -2.95%	
COc1ccc(-c2c(C#N)sc(C(N)=O)c2-c2ccc(OC)cc2)cc1	inactive: -4.53%	
COc1ccc(C2(CNC(=O)/C=C/c3ccco3)CCCC2)cc1OC		inconclusive: 15 µM [inhibitor, partial curve]
O=C(COC(=O)Cc1c[nH]c2ccccc12)NC1CCCCC1		inconclusive: 23.8 µM [inhibitor, single point]

Structure (SMILES)	max response, negative = inhibition	Potency
Cc1nc(CSc2nnc(C)s2)cs1	inactive: -4.83%	
O=C(CSc1nc(-c2ccccc2)cc(=O)[nH]1)N1CCc2ccccc21		active: 2.99 µM
Cc1cccc(-n2nnnc2SCC(=O)Nc2ccc(N3CCN(C)CC3)cc2)c1		inconclusive: 26.7 µM [inhibitor, partial curve]
O=C1C(=O)N(CC2CCCO2)C(c2ccccc2[N+](=O)[O-])/C1=C(/O)c1ccccc1 (stereo unspecified)	inconclusive: -30.3% [inhibitor]	
CC(C)[C@H](NS(=O)(=O)c1ccccc1F)C(=O)NC1CCCCC1	inactive: 0.975%	
O=C(/C=C/c1ccccc1)c1ccccc1O		inconclusive: 2.99 µM [inhibitor, partial curve]
COc1ccc2c(c1)[C@@H]1[C@H](CO2)[C@H](c2ccccc2)[C@]2(C)C(=O)Nc3ccc(C)cc3C(=O)N12	inactive: 0.677%	
N#Cc1ccsc1NC(=O)COC(=O)CCS(=O)(=O)c1ccccc1	inactive: -18.6%	
Cc1cc(SCC(=O)NC(=O)NCc2ccco2)nc2c(C)cccc12		inconclusive: 11.9 µM [inhibitor, partial curve]
CN(C(=S)NC(=O)/C=C/c1ccc(F)cc1)C1CCCCC1	inactive: -23.2%	
CC(=O)Oc1ccc2c(C)cc(=O)oc2c1C(=O)c1ccccc1		inconclusive: 21.2 µM [inhibitor, single point]
O=C(/C=C/c1ccco1)NCc1ccc2c(c1)OCO2	inactive: -24.5%	
CCN(CC)c1ccc(/C=N/Nc2ccccc2)c(O)c1		inconclusive: 4.74 µM [inhibitor, full curve]
COC(=O)C1=C(CSc2nc3ccccc3s2)NC(=O)NC1c1ccc(F)cc1 (stereo unspecified)		inconclusive: 26.7 µM [inhibitor, partial curve]
NCCCC[C@H]1NC(=O)[C@H](CCC(=O)O)NC(=O)c2cc([N+](=O)[O-])cc(I)c2OCC[C@@H](C(N)=O)NC1=O		active: 7.52 µM
COc1ccc(S(=O)(=O)NC(C)C(=O)Nc2cccc(C(C)=O)c2)cc1 (stereo unspecified)		inconclusive: 29.9 µM [inhibitor, single point]
COc1ccccc1NC(=O)c1cc2ccccc2o/c1=N\O		inconclusive: 23.8 µM [inhibitor, partial curve]
Cc1nc2c(OCCN3C(=O)c4ccccc4C3=O)cccn2c1N(C)C(=O)CCC1CCCC1	inactive: -2.73%	
COc1ccc(C2C(C(=O)c3cccs3)=C(O)C(=O)N2Cc2cccnc2)cc1OC (stereo unspecified)	inactive: -13.4%	
CCn1c(CSCc2c(Cl)cccc2Cl)n[nH]c1=S		inconclusive: 21.2 µM [inhibitor, partial curve]
O=C1CC(=O)OC(c2ccc([N+](=O)[O-])cc2)O1		active: 5.97 µM
N[C@@H](Cc1cc(I)c(Oc2cc(I)c(O)c(I)c2)c(I)c1)C(=O)O		inconclusive: 18.9 µM [inhibitor, partial curve]
CCOc1ccc(N2C(=O)CC(Sc3ccccc3C(=O)O)C2=O)c([N+](=O)[O-])c1 (stereo unspecified)		active: 26.7 µM

Entries of single compounds as entered above:
`NCCCC[C@H]1NC(=O)[C@H](CCC(=O)O)NC(=O)c2cc([N+](=O)[O-])cc(I)c2OCC[C@@H](C(N)=O)NC1=O` reads Potency: active: 7.52 µM
`O=C(CSc1nc(-c2ccccc2)cc(=O)[nH]1)N1CCc2ccccc21` reads Potency: active: 2.99 µM
`N[C@@H](Cc1cc(I)c(Oc2cc(I)c(O)c(I)c2)c(I)c1)C(=O)O` reads Potency: inconclusive: 18.9 µM [inhibitor, partial curve]
`COc1ccc2c(c1)[C@@H]1[C@H](CO2)[C@H](c2ccccc2)[C@]2(C)C(=O)Nc3ccc(C)cc3C(=O)N12` reads max response, negative = inhibition: inactive: 0.677%
